From patent US20080021553A1
These are yes or no findings as the source states them, for the method shown. Some binding calls cover weakened binding; strength is not graded here. Where a sequence is shown, tags or fusion partners need not be part of it. Blank lines part the entries; values can stand above or below the binder they belong to.

Key:
[1] = target: His6-tagged ADF-4 (Araneus diadematus fibroin-4, partial cDNA product from pFastBacHTa, expressed in the cytoplasm of Sf9 cells) (Araneus diadematus); assay: self-assembly into filaments in the cytoplasm of Sf9 cells; light microscopy and anti-His6 immunofluorescence
[2] = target: T7-tagged ADF-4 (Araneus diadematus fibroin-4, partial cDNA product, expressed in the cytoplasm of Sf9 cells) (Araneus diadematus); assay: self-assembly into filaments in Sf9 cells; light microscopy
[3] = target: T7-tagged ADF-4 (Araneus diadematus fibroin-4, partial cDNA product, expressed in the cytoplasm of Sf9 cells) (Araneus diadematus); assay: self-assembly into filaments in Sf9 cells co-expressing adf-3 and adf-4; sedimentation and western blot

binding [1]: binds
B1: His6-tagged ADF-4 (Araneus diadematus fibroin-4, partial cDNA product from pFastBacHTa, expressed in the cytoplasm of Sf9 cells) (protein, not shown: small tags and cut ends)
chain: AGSSAAAAAAASGSGGYGPENQGPSGPVAYGPGGPVSSAAAAAAAGSGPGGYGPENQGPSGPGGYGPGGSGSSAAAAAAAASGPGGYGPGSQGPSGPGGSGGYGPGSQGASGPGGPGASAAAAAAAAAASGPGGYGPGSQGPSGPGAYGPGGPGSSAAAAAAAASGPGGYGPGSQGPSGPGVYGPGGPGSSAAAAAAAGSGPGGYGPENQGPSGPGGYGPGGSGSSAAAAAAAASGPGGYGPGSQGPSGPGGSGGYGPGSQGGSGPGASAAAAAAAASGPGGYGPGSQGPSGPGYQGPSGPGAYGPSPSASASVAASVYLRLQPRLEVSSAVSSLVSSGPTNGAAVSGALNSLVSQISASNPGLSGCDALVQALLELVSALVAILSSASIGQVNVSSVSQSTQMISQALS

binding [2]: binds | binding [3]: binds
B2: T7-tagged ADF-4 (Araneus diadematus fibroin-4, partial cDNA product, expressed in the cytoplasm of Sf9 cells) (protein, not shown: small tags and cut ends)
chain: B1 chain
